Reference: US20160251703

Tests used:
[1] = molecular target: T1, Ara h 1 (peanut flour protein) (Arachis hypogaea) (UniProt P43238); experiment: binding assay; conditions: fluorescence turn-on; peanut flour down to 1 ppm in mug cake; K buffer; protein in an extract; protein details: pure peanut flour; label: 5'-fluorescein, 3'-Dabcyl; single-stranded DNA
T1 sequence (looked up, limits assumed): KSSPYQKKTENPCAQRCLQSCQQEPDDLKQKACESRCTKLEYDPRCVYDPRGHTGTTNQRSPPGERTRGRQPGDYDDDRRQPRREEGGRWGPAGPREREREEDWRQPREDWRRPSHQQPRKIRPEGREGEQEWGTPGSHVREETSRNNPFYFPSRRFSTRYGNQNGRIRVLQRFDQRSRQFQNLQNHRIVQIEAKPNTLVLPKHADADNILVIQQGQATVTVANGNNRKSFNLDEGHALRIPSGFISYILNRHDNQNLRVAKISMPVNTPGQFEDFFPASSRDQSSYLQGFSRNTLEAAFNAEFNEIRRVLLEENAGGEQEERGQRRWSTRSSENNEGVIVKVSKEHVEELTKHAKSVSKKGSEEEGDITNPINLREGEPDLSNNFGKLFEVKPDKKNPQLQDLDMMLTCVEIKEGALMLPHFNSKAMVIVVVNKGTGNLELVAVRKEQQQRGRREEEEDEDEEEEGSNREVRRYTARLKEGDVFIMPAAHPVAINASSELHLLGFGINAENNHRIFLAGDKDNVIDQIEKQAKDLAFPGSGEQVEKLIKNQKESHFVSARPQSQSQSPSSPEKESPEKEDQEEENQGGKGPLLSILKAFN

[2] = molecular target: Lysozyme (in egg white extract) (UniProt P00698); experiment: binding assay; conditions: protein in an extract, protein details: egg white or egg-containing food
[3] = egg white (protein mixture) spiked in mug cake, label: 5'-fluorescein, 3'-Dabcyl, single-stranded DNA

“TCGCACATTCCGCTTCTACCGGGGGGGTCGAGCTGAGTGGATGCGAATCTGTGGGTGGGCCGTAAGTCCGTGTGTGCGAAAATGTGCGA [MB9]”: binds [1]; no binding [2, 3].

“TCGCACATTCCGCTTCTACCGGGGGGGTCGAGCTGAGTGGATGCGAATCTGTGGGTGGGCCGTAAGTCCGTGTGTGCGAATGTGCGA [MB7]”: binds [1]; no binding [2, 3].

“TGCAGCTAAGCAGGCGGCTCACAAAACCATTCGCATGCGGC / CTTAGCTGCA [SPN-E*]”: binds ([2]; fluorescence turn-on, egg white diluted 1:20000, 100 uM SPN, folded or branched DNA).

“TGCAGCTAAGCAGGCGGCTCACAAAACCATTCGCATGCGGCCTGCA [MB5]”: binds ([2]; fluorescence turn-on, egg white in P+, P-, K and T buffers, label: 5'-fluorescein, 3'-Dabcyl, single-stranded DNA).

“TGCAGCTAAGCAGGCGGCTCACAAAACCATTCGCATGCGGCGCTGC [SPN-E]”: binds ([2]; fluorescence turn-on, egg white diluted 1:20, label: 5'-fluorescein, 3'-DABCYL, single-stranded DNA).

“TGCAGCTAAGCAGGCGGCTCACAAAACCATTCGCATGCGGCGCTGCA [MB6]”: binds ([2]; fluorescence turn-on, egg white in K buffer, decreased in P+ buffer, label: 5'-fluorescein, 3'-Dabcyl, single-stranded DNA).

“TGCAGCTAAGCAGGCGGCTCACAAAACCATTCGCATGCGGCTGCA [MB4]”: binds ([2]; fluorescence turn-on, egg white in K buffer (PBS pH 8.0, 10 mM MgCl2, 50 mM KCl, 100 mM NaCl, detergents), label: 5'-fluorescein, 3'-Dabcyl, single-stranded DNA).

Where cells or extracts were used, other partners may take part. For part of these data: A negative result means that nothing was seen under these conditions. For part of these data: Tags and fusion partners may be left off the protein sequences shown.
